Data as given in PubChem BioAssay AID686943 (Drosophila RNAi Screening Center, 2013).

Assay: 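Search across the genome for regulators of signalling from receptor tyrosine kinase to ERK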 (primary screen)
System: Drosophila S2R+ haemocyte-like cells expressing YFP-tagged ERK (Rolled)
Reagents: long dsRNA against Drosophila genes
Challenge: insulin stimulation versus unstimulated cells; dose and duration not given
Measurement: 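Per-plate z-scores of phospho-ERK immunostaining normalised to YFP-tagged ERK, measured with and without insulin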
Scale: replicate 1, z-score of dpERK with insulin and replicate 2, z-score of dpERK with insulin: higher = more active ERK per ERK-YFP after insulin; replicate 1, z-score of dpERK under basal conditions: higher = more basal active ERK per ERK-YFP; replicate 1, z-score of ERK-YFP with insulin: higher = more YFP-tagged ERK signal
The deposit covers about 23,000 reagents; shown is a random part of those with a known target gene and a result. 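Extra replicates exist only for a retested subset of genes; insulin dose and duration not given; both raised and lowered dpERK matter.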 Names joined by + are all predicted targets of the reagent. Not given: the amount of reagent, the time to read-out.

no.	Target gene	PubChem SID	replicate 1, z-score of dpERK with insulin	replicate 2, z-score of dpERK with insulin	replicate 1, z-score of dpERK under basal conditions	replicate 1, z-score of ERK-YFP with insulin
1	lncRNA:CR43334 (GeneID 12798545)	SID104187686	0.6	0.82	-0.25	-0.3
2	lncRNA:CR43334 (GeneID 12798545)	SID104187687	0.81	0.79	0.46	-0.39
3	fest (GeneID 37220)	SID104187141	-1.81	-1.06	-0.41	0.82
4	lncRNA:CR32690 (GeneID 10178944)	SID104201753	-0.27	0.44	0.87	2.21
5	CG3473 (GeneID 34849)	SID104181707	0.13	-0.54	-0.83	-0.16
6	CG8170 (GeneID 35908)	SID104186879	-0.17	0.19	0.54	-0.22
7	CG8774 (GeneID 41635)	SID104196237	0.6	0.2	-0.48	-0.17
8	Or83c (GeneID 40744)	SID104192151	-0.72	0.11	-0.15	-0.3
9	CG32815 (GeneID 318224)	SID104197969	0.31	-0.16	0.53	0.29
10	CG32815 (GeneID 318224)	SID104197971	0.15	0.52	0.66	0.26
11	ect (GeneID 44135)	SID104190467	1.8	0.72	0.58	-0.5
12	ect (GeneID 44135)	SID104191135	1.23	2.06	1.46	-0.82
13	ect (GeneID 44135)	SID104201848	0.01	0.35	0.12	-1.49
14	Trf (GeneID 34102)	SID104183254	0.59	0.4	1.35	-1.06
15	tpr (GeneID 37486)	SID104184260	-0.65	-0.15	0.85	0.54
16	lectin-21Ca (GeneID 53552)	SID104180333	1.56	0.49	0.36	-0.48
17	CG15120 (GeneID 37248)	SID104186334	0.11	-0.63	0.63	0.45
18	Pdhb (GeneID 43437)	SID104194212	0.01	0.58	0.33	1.25
19	lama (GeneID 38610)	SID104191153	0.02	0.77	-0.27	0.13
20	lncRNA:CR31647 (GeneID 12798562)	SID104201529	-0.32	0.22	0.29	0.69
21	Cp7Fb (GeneID 31785)	SID104197826	-0.38	0.04	0.54	0.23
22	CG5532 (GeneID 37761)	SID104184301	1.02	-0.16	1.41	1.59
23	CG8034 (GeneID 32924)	SID104199868	-0.64	-1.07	-1.6	-2.73
24	CG12075 (GeneID 31815)	SID104197593	-0.06	0.29	0.11	1.67

Part of the list above, set out differently.
Or83c (GeneID 40744) [SID104192151]
- replicate 1, z-score of dpERK with insulin: -0.72
- replicate 2, z-score of dpERK with insulin: 0.11
- replicate 1, z-score of dpERK under basal conditions: -0.15
- replicate 1, z-score of ERK-YFP with insulin: -0.3

CG32815 (GeneID 318224) [SID104197969]
- replicate 1, z-score of dpERK with insulin: 0.31
- replicate 2, z-score of dpERK with insulin: -0.16
- replicate 1, z-score of dpERK under basal conditions: 0.53
- replicate 1, z-score of ERK-YFP with insulin: 0.29

CG32815 (GeneID 318224) [SID104197971]
- replicate 1, z-score of dpERK with insulin: 0.15
- replicate 2, z-score of dpERK with insulin: 0.52
- replicate 1, z-score of dpERK under basal conditions: 0.66
- replicate 1, z-score of ERK-YFP with insulin: 0.26

ect (GeneID 44135) [SID104190467]
- replicate 1, z-score of dpERK with insulin: 1.8
- replicate 2, z-score of dpERK with insulin: 0.72
- replicate 1, z-score of dpERK under basal conditions: 0.58
- replicate 1, z-score of ERK-YFP with insulin: -0.5

ect (GeneID 44135) [SID104191135]
- replicate 1, z-score of dpERK with insulin: 1.23
- replicate 2, z-score of dpERK with insulin: 2.06
- replicate 1, z-score of dpERK under basal conditions: 1.46
- replicate 1, z-score of ERK-YFP with insulin: -0.82

ect (GeneID 44135) [SID104201848]
- replicate 1, z-score of dpERK with insulin: 0.01
- replicate 2, z-score of dpERK with insulin: 0.35
- replicate 1, z-score of dpERK under basal conditions: 0.12
- replicate 1, z-score of ERK-YFP with insulin: -1.49

Trf (GeneID 34102) [SID104183254]
- replicate 1, z-score of dpERK with insulin: 0.59
- replicate 2, z-score of dpERK with insulin: 0.4
- replicate 1, z-score of dpERK under basal conditions: 1.35
- replicate 1, z-score of ERK-YFP with insulin: -1.06

tpr (GeneID 37486) [SID104184260]
- replicate 1, z-score of dpERK with insulin: -0.65
- replicate 2, z-score of dpERK with insulin: -0.15
- replicate 1, z-score of dpERK under basal conditions: 0.85
- replicate 1, z-score of ERK-YFP with insulin: 0.54

lectin-21Ca (GeneID 53552) [SID104180333]
- replicate 1, z-score of dpERK with insulin: 1.56
- replicate 2, z-score of dpERK with insulin: 0.49
- replicate 1, z-score of dpERK under basal conditions: 0.36
- replicate 1, z-score of ERK-YFP with insulin: -0.48

CG15120 (GeneID 37248) [SID104186334]
- replicate 1, z-score of dpERK with insulin: 0.11
- replicate 2, z-score of dpERK with insulin: -0.63
- replicate 1, z-score of dpERK under basal conditions: 0.63
- replicate 1, z-score of ERK-YFP with insulin: 0.45

Pdhb (GeneID 43437) [SID104194212]
- replicate 1, z-score of dpERK with insulin: 0.01
- replicate 2, z-score of dpERK with insulin: 0.58
- replicate 1, z-score of dpERK under basal conditions: 0.33
- replicate 1, z-score of ERK-YFP with insulin: 1.25

More results follow:
no.	Target gene	PubChem SID	replicate 1, z-score of dpERK with insulin	replicate 2, z-score of dpERK with insulin	replicate 1, z-score of dpERK under basal conditions	replicate 1, z-score of ERK-YFP with insulin
25	CG33460 (GeneID 3885588)	SID104185362	-0.3	0.84	0.29	0.57
26	CRIF (GeneID 40395)	SID104191603	-0.7	-0.43	0.66	1.82
27	CG43059 (GeneID 12798369)	SID104188708	0.33	0.32	0.28	0.14
28	RabX1 (GeneID 44172)	SID104184470	0.34	1.25	-0.46	-0.09
29	rdgB (GeneID 32340)	SID104200157	-0.52	0.43	-1.33	0.62
30	Fum3 (GeneID 39281)	SID104190384	0.43	-0.02	0.19	0.16
31	vnd (GeneID 31003)	SID104197152	-0.97	0.53	1.99	1.28
32	vnd (GeneID 31003)	SID104198641	2.21	0.53	1.05	-0.21
33	vnd (GeneID 31003)	SID104201941	-1.42	-2.41	0.88	2.34
34	Root (GeneID 42860)	SID104195764	0.41	-0.51	-1.06	0.2
35	msi (GeneID 43087)	SID104196795	-0.57	-1.05	-1.56	1.86
36	Atg101 (GeneID 32871)	SID104199812	-0.09	0.39	-1.05	0.32
37	CG15553 (GeneID 43677)	SID104194883	0.41	0.1	-0.12	1.1
38	RpL36 (GeneID 31009)	SID104198500	-0.27	-0.68	-1.48	-4.53
39	Trm1 (GeneID 34656)	SID104182743	-0.48	-0.53	-0.23	0.04
40	Sk1 (GeneID 32089)	SID104199566	-1.22	-0.5	-1.07	0.14
41	ced-6 (GeneID 35971)	SID104187383	0.25	0.77	-0.7	-0.31
42	CG7011 + Prp31	SID104190552	-0.3	0.58	0.58	0.1
43	CG7135 (GeneID 32793)	SID104199818	0.91	0.85	-0.61	-0.3
44	CG7330 (GeneID 40007)	SID104190605	0.85	0.69	-0.08	0.09
45	CG7330 (GeneID 40007)	SID104190606	-0.63	-0.14	-0.17	0.08
46	drongo (GeneID 33263)	SID104180606	-0.66	0.65	0.19	0.12
47	RhoGAP18B (GeneID 32898)	SID104199555	0.47	1.9	-0.73	-0.24
48	RhoGAP18B (GeneID 32898)	SID104199839	0	2.09	-0.65	0.56
49	RhoGAP18B (GeneID 32898)	SID104199840	-1.66	1.06	-1.1	2.46
50	RhoGAP18B (GeneID 32898)	SID104199841	-0.45	-0.5	-0.76	-0.22
51	spartin (GeneID 40582)	SID104191979	1.05	-0.09	-1.43	-0.21
52	CG33307 (GeneID 2768914)	SID104181141	1.23	2.42	1.25	-3.05
53	CG12780 (GeneID 35834)	SID104185961	-0.27	0.94	-0.13	0.34
54	Epp (GeneID 42840)	SID104194399	-0.19	-0.34	-0.79	0.63
55	BobA (GeneID 50281)	SID104189681	0.17	-0.2	-0.08	0.15
56	sip1 (GeneID 44238)	SID104183401	-0.41	-0.89	-0.04	0.59
57	sip1 (GeneID 44238)	SID104202051	0.04	0.56	0.72	0.88
58	CR9337 (GeneID 3885658)	SID104183004	0.15	-0.02	-0.6	-0.63
59	CG15517 (GeneID 43537)	SID104194848	-0.31	1.69	3.8	-0.14
60	CG1394 (GeneID 32059)	SID104199331	-0.07	0.27	-1.04	-0.55
61	CG13800 (retired record) (GeneID 38305)	SID104188126	1.24	0.72	0.99	0.22
62	Cnb (GeneID 38258)	SID104188361	-0.92	-0.96	0.03	0.24
63	CG13217 (GeneID 36180)	SID104186131	0.07	1.29	0.09	-0.2
64	Sec63 (GeneID 38819)	SID104190794	0.38	0.18	-0.77	0.91
65	CG13949 (GeneID 33266)	SID104180159	0.28	0.08	0.11	-0.23
66	Myc (GeneID 31310)	SID104198554	0	-4.36	-2.94	0
67	CG3987 (GeneID 41822)	SID104195323	0	-0.05	-0.14	0
68	yl (GeneID 32367)	SID104200179	0.36	0.57	-0.33	0.1
69	Vha68-3 (GeneID 34695)	SID104182601	0.41	0.31	-0.54	0.5
70	CG4744 (GeneID 36485)	SID104186679	0.49	-0.05	0.23	0.41
71	CG14731 (GeneID 41442)	SID104194744	1.01	0.92	-0.06	0.14
72	CG9451 (GeneID 40118)	SID104190866	-0.29	0	0.64	-0.31
73	dod (GeneID 33111)	SID104200369	0.71	0.18	1.12	-0.54
